Data as given in PubChem BioAssay AID540275 (National Center for Advancing Translational Sciences (NCATS), 2011).
Several values for one entry are separate records, joined by “and”; a condition that tells them apart may be missing. Identical values can stand only once. Among all 320,000 compounds or so, about 620 (0.19%) were called active. Inconclusive results, whose numbers are uncertain, are shown with a selection of clear calls. No stated cut-off is given here; in the data, active means activation above about 80%; inconclusive means between about 30% and that limit; inactive means weaker than that.

Protein sequences, listed by entry. Tags and fused reporters are not part of them.
UniProt Q8NER1, whole entry, looked up: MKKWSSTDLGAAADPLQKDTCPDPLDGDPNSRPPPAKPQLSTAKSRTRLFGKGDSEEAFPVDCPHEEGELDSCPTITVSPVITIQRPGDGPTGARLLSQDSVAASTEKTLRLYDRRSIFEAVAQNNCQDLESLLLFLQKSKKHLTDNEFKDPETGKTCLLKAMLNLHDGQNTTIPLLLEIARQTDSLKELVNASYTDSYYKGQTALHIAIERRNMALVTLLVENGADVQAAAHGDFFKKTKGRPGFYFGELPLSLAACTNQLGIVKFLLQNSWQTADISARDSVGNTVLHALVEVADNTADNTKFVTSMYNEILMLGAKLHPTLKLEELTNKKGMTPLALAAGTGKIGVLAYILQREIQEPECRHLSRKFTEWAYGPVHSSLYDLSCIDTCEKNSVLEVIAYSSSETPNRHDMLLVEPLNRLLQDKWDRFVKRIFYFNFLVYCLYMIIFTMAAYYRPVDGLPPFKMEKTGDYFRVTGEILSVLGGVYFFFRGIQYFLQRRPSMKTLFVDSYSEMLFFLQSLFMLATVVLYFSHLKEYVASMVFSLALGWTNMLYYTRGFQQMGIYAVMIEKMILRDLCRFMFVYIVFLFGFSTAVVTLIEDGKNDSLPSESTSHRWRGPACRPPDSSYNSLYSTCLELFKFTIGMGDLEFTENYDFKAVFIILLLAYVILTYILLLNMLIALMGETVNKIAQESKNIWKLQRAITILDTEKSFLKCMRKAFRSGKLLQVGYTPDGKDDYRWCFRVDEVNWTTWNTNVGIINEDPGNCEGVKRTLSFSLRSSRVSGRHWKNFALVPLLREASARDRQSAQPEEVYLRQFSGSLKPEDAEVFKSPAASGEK

Target: Transient receptor potential cation channel subfamily V member 1 (Homo sapiens) (UniProt Q8NER1)
Assay: HTS Assay for Compounds that Act as Agonists of the Vanilloid Receptor 1; further: 0% is about no effect
Details: TRPV1-expressing cells, Fluo-8 calcium influx, agonist mode; at 8.33 µM; hits give high values
How it was run: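 Fluo-8 calcium influx in TRPV1-expressing cells, kinetic read (ex 480/em 520 nm). Compound added and read 3 min for agonist activity, followed by capsaicin at EC20 final and 2 min further read for enhancement.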

SMILES | activation
Cc1ccc(N)c(N)c1 | inconclusive: 46%
COC(=O)C1=C(c2ccc(OC(F)(F)F)cc2)C[C@@H]2CC[C@H]1N2C(=O)NC1CCCCC1 | inconclusive: 33%
O=P(Nc1ccccc1)(Nc1ccccc1)Oc1ccccc1 | inactive: 2.87%
CC(C)CCNC(=O)c1cc(C(=O)c2cc(Br)ccc2O)cn(CCC(C)C)c1=O | inconclusive: 43.3%
Cc1ccc(Cn2cc(C=O)c(-c3ccc(F)cc3)n2)cc1 | inconclusive: 45%
OC(COCc1ccc(Cl)cc1)CN1CC=C(c2ccccc2)CC1 (configuration not stated) | inactive: 14.7%
CCCNc1oc(-c2cccc3ccccc23)nc1C#N | inconclusive: 43.1%
O=c1c2ccccc2nc(-c2ccc(-c3ccccc3)cc2)n1-c1ccncc1 | inconclusive: 35.1%
COc1ccc(C(=O)C2CCCN(C3CSCCSC3)C2)cc1OC (configuration not stated) | inconclusive: 39.7%
C=C[C@@H]1C2=CCOC(=O)C2=CO[C@H]1O[C@@H]1O[C@H](CO)[C@@H](O)[C@H](O)[C@H]1O | inactive: -1.37%
C=C(C=O)C[C@@H]1C[C@H](O)C2OC3C[C@]4(C)OC5/C=C\CC6OC7C(CC=CCC6OC5CCCC4OC3CC2O1)OC1CC2OC3CC(=O)OC3C[C@@H](C)C[C@@]2(C)OC1C[C@@H]7C (some centres not stated) | inactive: -4.83%
CN1C(=O)C(=Cc2sc(=O)n(-c3ccccc3)c2N2CCCCC2)C(=O)N(C)C1=O | inactive: 13.7%
O=C(COc1ccc(Cl)cc1)N1CCN(Cc2ccccc2)CC1 | inconclusive: 45.3%
CCOC(=O)c1c(C=O)c2ccccc2n1Cc1ccccc1F | inconclusive: 57.6%
CCC(C)C1N=C(c2ccccc2)c2cc(Cl)ccc2N(CC(=O)NCc2ccco2)C1=O (configuration not stated) | inconclusive: 32.5%
O=C(/C=C/c1c[nH]c2ccccc12)c1c(O)n(CCc2ccccc2)c(=O)[nH]c1=O | inconclusive: 71.5%
Cc1cc(Cl)ccc1OCCCC(=O)NCc1cccs1 | inconclusive: 62.5%
Cc1sc2nc(COC(=O)Cc3ccccc3)[nH]c(=O)c2c1C | inconclusive: 43.3%
CCC(=Nc1ccc2c(c1)CCC2)c1c(O)n(C)c(=O)n(C)c1=O | inactive: 0.126%
CCn1c(C)c(C(=O)Nc2ccc(OC)cc2)c2cc(OC)ccc21 | inconclusive: 39.4%
CC(=O)N1CCN(c2ccc([N+](=O)[O-])cc2C=C2C(=O)NC(=O)NC2=O)CC1 | inactive: 1.67%
CC(Cc1ccccc1)NC(=O)/C=C/c1ccc(Cl)cc1 (configuration not stated) | inconclusive: 37.8%

SMILES | activation
CC(=O)NC(C)Cc1ccccc1 (configuration not stated) | inconclusive: 57.8%
O=[N+]([O-])c1ccc(-c2ccccc2)c([As](=O)(O)O)c1 | inactive: -0.96%
O=c1c2ccccc2nc(-c2ccccc2Cl)n1-c1ccc(O)cc1 | inconclusive: 55.1%
Cc1cccc(NC(=O)CN2CCN(C(=O)COc3cccc(Br)c3)CC2)c1C | inconclusive: 48.4%
CSc1ccccc1C(=O)C1CCCN(Cc2ccccn2)C1 (configuration not stated) | inactive: 0.344%
COc1ccc(O)c2c(=O)c3c(OC)cc4c(c3oc12)C1C=COC1O4 (configuration not stated) | inactive: 14.1%
O=c1[nH]c(=S)[nH]c(O)c1N=Nc1ccc(S(=O)(=O)N2CCc3ccccc32)cc1 | inactive: -6.5%
CCOc1ccccc1N1C(=O)CC(=O)NC1=O | inactive: 0.157%
COC(=O)C1=C(c2ccc(F)cc2OCc2ccccc2)C[C@@H]2CC[C@H]1N2C(=O)N1CCC(C)CC1 | inconclusive: 46.5%
CCCCn1c(=O)c(C(=O)Nc2ccccc2N)c(O)c2ccccc21 | inactive: 19.3%
C=CCn1c(O)c(/C=N/NC(=O)c2ccncc2)c(=O)[nH]c1=O | inconclusive: 33%
O=c1c2ccccc2[se]n1-c1ccccc1 | inconclusive: 30.4%
CCCCN1C(=O)NC(=O)C2(Cc3c(nc4ccccn4c3=O)N3CCc4ccccc4C32)C1=O (configuration not stated) | inconclusive: 75.8%
CCOC(=O)c1c(C)n(C(C)C)c2ccc(OC)cc12 | inconclusive: 43.1%
CC(Cc1ccccc1)NCc1ccccc1O (configuration not stated) | inactive: 0.942%
COC(=O)C1=C(c2ccc(F)cc2OCc2ccccc2)C[C@@H]2CC[C@H]1N2C(=O)N1CCCC1 | inconclusive: 37.6%
CCOc1cc(CNCCc2c[nH]c3ccccc23)cc(Cl)c1OC | inactive: 7.51%
Cc1cccc(N2C(=O)NC(=O)/C(=C\C=C\c3ccco3)C2=O)c1 | inactive: 14.1%
O=C(Oc1c(Cl)cc(Cl)c2ccccc12)N1CCCCC1 | inactive: 25.7%
CCn1c(O)c(/C=N/NC(=O)c2ccccc2)c(=O)[nH]c1=S | inconclusive: 34%
COC(=O)C1=C(c2ccc3ccccc3c2)C[C@@H]2CC[C@H]1N2C(=O)N1CCC(O)CC1 | inconclusive: 39.6%
COCCCn1c(N)c(C(=O)NCCC(C)C)c2nc3ccccc3nc21 | inconclusive: 61.2%

SMILES | activation
N=Cc1c(O)n(-c2ccc(C34CC5CC(CC(C5)C3)C4)cc2)c(=O)[nH]c1=O | inactive: 12.1%
O=C(Nc1ccc(Cl)cc1)OC1CN2CCC1CC2 (configuration not stated) | inactive: 14.1%
CCc1ccc(OCC(=O)N2CCN(CC(=O)Nc3ccccc3Cl)CC2)cc1 | inconclusive: 64.5%
CNc1ccc2nc3ccccc3[n+](C)c2c1 | inactive: 3.14%
COc1ccc(CN2CCN(C(=O)COc3ccc4ccccc4c3)CC2)c(OC)c1 | inactive: 23.2%
O=c1[nH]c(O)c(N=Nc2ccc([N+](=O)[O-])cc2)c(=O)[nH]1 | inactive: -2.24%
CN1/C(=C\C=C2C(=O)NC(=O)NC2=O)C(C)(C)c2ccccc21 | inconclusive: 58.7%
O=C1CN=C(c2ccc[nH]2)c2cc(Cl)ccc2N1 | inconclusive: 40.8%
O=C(CN1CC=C(c2ccccc2)CC1)NC(=O)NCc1ccccc1 | inactive: 12.9%
CC(Cc1ccccc1)NC(=O)Cc1ccc([N+](=O)[O-])cc1 (configuration not stated) | inconclusive: 47.1%
Nc1c(C(=O)NCc2ccco2)c2nc3ccccc3nc2n1CCN1CCCCC1 | inconclusive: 39.2%
COC(=O)C1=C(c2ccc(F)cc2OCc2ccccc2)C[C@@H]2CC[C@H]1N2C(=O)N1CCCCC1 | inconclusive: 37.9%
CCCc1c(C)nc(-c2ccc(C)cc2)nc1OC(=O)N(C)C | inconclusive: 41.6%
CNC(=O)Oc1ccc(-c2cn3cc(Cl)ccc3n2)cc1 | inactive: 24.7%
Cc1ccc(/C=C2/C(=O)NC(=O)N(CCc3ccc(F)cc3)C2=O)o1 | inactive: 1.75%
O=[N+]([O-])c1cccc(CN2CCN(Cc3ccc(Cl)cc3)CC2)c1 | inactive: 1.63%
Cc1ncc(CN2CCCC(C(=O)c3ccc(C(C)(C)C)cc3)C2)s1 (configuration not stated) | inconclusive: 31.1%
COc1cccc(-n2c(=S)[nH]c3ccccc3c2=O)c1 | inactive: 0.557%
Cn1c(O)c(/C=N/NC(=O)c2ccncc2)c(=O)n(C)c1=S | inconclusive: 30.4%
O=C(CN1CCOCC1)NCC(=O)Nc1ccc(Br)cc1C(=O)c1ccccc1 | inactive: 0.932%
CCC(C)NC(=O)c1c(N)n(CCCOC)c2nc3ccccc3nc12 (configuration not stated) | inconclusive: 58.4%
Cc1c(C(=O)N2CCC3(CC2)OCCO3)sc2ncnc(N(C)c3ccccc3)c12 | inconclusive: 34.8%

SMILES | activation
CCCC(=O)N(C)C1=Nc2ccc(Cl)cc2C(c2ccccc2)=[N+]([O-])C1 | inconclusive: 34.8%
COc1ccc(-n2c(CN3CCOCC3)nc3ccccc3c2=O)c(OC)c1 | inactive: 1.07%
CN(C)C(=O)Oc1ccc([N+](=O)[O-])cc1 | inconclusive: 33.3%
CCC(C#N)(CC)P(=S)(c1ccccc1)c1ccccc1 | inconclusive: 30.3%
O=C(c1cc(-c2ccc(Cl)cc2)n(-c2ccc(Cl)cc2Cl)n1)N1CCOCC1 | inconclusive: 53.5%
CN1CCN(C(=O)COc2ccc3ccccc3c2Br)CC1 | inconclusive: 34.2%
O=[N+]([O-])/C=C1\NCCN1Cc1ccc(Cl)nc1 | inactive: -1.25% and inactive: 2.73%
COC(=O)C1=C(c2ccc3ccccc3c2)C[C@@H]2CC[C@H]1N2C(=O)N1CCCC1 | inconclusive: 39.7%
COC(=O)C1=C(c2ccc(Cl)c(C(F)(F)F)c2)C[C@@H]2CC[C@H]1N2C(=O)N1CCC(C)CC1 | inconclusive: 55%
O=C(N/N=C/c1c(O)n(-c2ccccc2)c(=S)[nH]c1=O)c1ccccc1 | inconclusive: 38.6%
CCCCCCCC(=O)NC(Oc1ccccc1[N+](=O)[O-])C(Cl)(Cl)Cl (configuration not stated) | inconclusive: 42.4%
Cc1ccc(C)c(CN2CCC(n3nnc4cc(F)ccc43)CC2)c1 | inconclusive: 37.3%
COc1ccc(-c2cc(=NCCC(=O)O)c3cc(C)ccc3o2)cc1 | inconclusive: 32.1%
OC(c1ccccc1)(c1ccccc1)C1CCCN1 (configuration not stated) | inconclusive: 38.4%
CCN(CC(=O)Nc1ccc(C#N)c(Cl)c1)CC(=O)NC(C)(C)C | inconclusive: 30.6%
Cc1ccc(/C=C2\C(=O)NC(=S)N(c3ccccc3F)C2=O)s1 | inactive: -1.92%
COC(=O)[C@@H]1C[C@@]1(C)[C@@H](NP(=O)(c1ccccc1)c1ccccc1)c1ccccc1 | inconclusive: 46.5%
CC(C)OP(=O)(OC(C)C)C(NCc1ccccc1)c1ccccc1 (configuration not stated) | inconclusive: 39.4%
O=C1NC(=S)N(Cc2ccco2)C(=O)/C1=C\c1cccs1 | inactive: -0.781%
O=C(c1ccco1)c1cn(Cc2ccccc2)c2ccccc12 | inconclusive: 44.4%
Cc1cc(C(=O)Nc2ccc3c(c2)OCCO3)nn1C(C)(C)C | inconclusive: 69.2%
